From US20250092085A1 (ASOCIACIÓN CENTRO DE INVESTIGACIÓN COOPERATIVA EN …, priority 2021, published 2025) come the findings set out here.

End groups of sequences in plain letters are not given here.

This series in a line: general procedure: Fmoc solid-phase peptide synthesis; Rink Amide MBHA; DIC / Oxyma Pure. The note with it: whole synthesis, overall.

With GVTSAPDTRPAPGSTA, the isolated yield is given as 44%.
